Literature values as cited in US8933028B2, “Use of selective estrogen receptor modulator for joint fusion and other repair or healing of connective tissue” (priority 2010, dated 2015).

Test system: bone
Conditions: postmenopausal women with low bone density; cited from earlier work

SMILES: NCCCC(O)(P(=O)(O)O)P(=O)(O)O [alendonate]
- bone density and bone turnover comparing to raloxifene: high bone density and lower bone turnover
